Measured values as given in PubChem BioAssay AID504467 (National Center for Advancing Translational Sciences (NCATS), 2011).
Hit rate of the full screen: of about 330,000 compounds, about 7,700 (2.3%) were called active. This list was built around the results that the source calls inconclusive (neither active nor inactive); the mix of calls is not that of the screen. The call rests on the fitted dose curve; in most records, active means well fitted inhibition curve with a large enough effect; inconclusive means small, poorly fitted or top-dose-only effect, or effect the other way; inactive means flat fitted curve, though single readings scatter. Potencies of inconclusive entries are doubtful fits and often do not repeat.
Potency means the concentration at half of the fitted maximal effect.

Assay: qHTS screen for small molecules that inhibit ELG1-dependent DNA repair in human embryonic kidney (HEK293T) cells expressing luciferase-tagged ELG1; further: nearly all actives have a fitted effect of over 55% in size
Conditions: HEK293T ELG1-luciferase reporter, luminescence, 16 h, DNA damage induced by 5-fluorouridine; series mostly up to 46.1 µM
Summary of the method: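 Luminescence from the luciferase reporter, measured 30 min after ONE-Glo reagent at room temperature, was the read-out. Beforehand, 2,000 cells per well were exposed for 16 hr at 37 °C to 5-fluorouridine together with compound or vehicle.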
For COc1ccccc1N1CCN(C(=O)c2c(-c3ccccc3)noc2C)CC1, the Potency was inconclusive: 6.51 µM [inhibitor, partial curve, poor fit].
In the case of O=C(N1CCN(c2ccccc2)CC1)C1(c2cccs2)CCOCC1, the Potency is reported as inconclusive: 0.731 µM [inhibitor, partial curve, poor fit].
In the case of CC(NC(=O)c1ccc(OC2CCN(C(=O)c3cccnc3)CC2)cc1)C1CC1 (stereo not drawn), the Potency is reported as “inactive”.
In the case of CN(CCCNC(=O)CSc1cc(=O)n(C)c2ccc(Cl)cc12)Cc1ccccc1, the Potency is reported as inconclusive: 29.1 µM [activator, single point].
For CSc1ccc(/C=C/C(=O)OCC(=O)c2ccc[nH]2)cc1, the Potency was inconclusive: 13 µM [activator, partial curve, poor fit].
For CCO[C@H]1OC(C(=O)N2CCN(Cc3ccccc3)CC2)=C[C@@H](c2coc3ccccc3c2=O)[C@@H]1CCCO, the Potency was inconclusive: 18.3 µM [inhibitor, single point].
With CC(C)C(=O)Nc1cccc(NC(=O)c2cccc(F)c2)c1 the Potency was “inactive”.
For COc1ccc(CCNC(=O)c2ccccc2OCc2ccccc2)cc1, the Potency was inconclusive: 29.1 µM [inhibitor, single point].
In the case of Cc1ccc(-c2nnn3c2nc(NC(C)C)c2ccccc23)cc1, the Potency is reported as “inactive”.
With C/C(CC(=O)Nc1ccc(Cl)c(C(F)(F)F)c1)=N\NC(=O)c1cc2ccccc2cc1O the Potency was “inactive”.
For c1ccc2sc(NCC3CCCO3)nc2c1 (stereo not drawn), the Potency was inconclusive: 10.3 µM [activator, partial curve].
In the case of Cc1sc(NC(=O)CN(CCc2ccccc2)C(=O)C2CC2)c(C(N)=O)c1C, the Potency is reported as inconclusive: 18.3 µM [inhibitor, single point].
For COc1ccccc1N1CCN(C(CNC(=O)c2ccco2)c2cccnc2)CC1 (stereo not drawn), the Potency was inconclusive: 16.4 µM [inhibitor, partial curve, poor fit].
In the case of COc1ccccc1OCC(=O)N(Cc1nc(-c2ccc(Cl)cc2)no1)C(C)C, the Potency is reported as inconclusive: 8.2 µM [inhibitor, single point].
For CCCCOC(=O)NS(=O)(=O)c1sc(CC(C)C)cc1-c1ccc(Cn2c(CC)nc3c(C)cc(C)nc32)cc1, the Potency was active: 13 µM.
In the case of CC[C@H](C)C(C(=O)N1CCN(C(=O)OC(C)(C)C)CC1)n1cc(C(CC(C)C)NC(=O)OC(C)(C)C)nn1 (stereo partly drawn), the Potency is reported as inconclusive: 13 µM [inhibitor, partial curve].
For Nc1cc(OC(=O)c2ccccc2Br)nn1S(=O)(=O)c1ccccc1, the Potency was inconclusive: 20.6 µM [activator, single point].
In the case of CC1CN=C(N(C(=O)Nc2ccccc2)c2ccc(F)cc2)S1 (stereo not drawn), the Potency is reported as inconclusive: 32.6 µM [activator, partial curve, poor fit].
